Data reported in the supplement of paper PMC6289059.
Several values for one entry are separate records, joined by “and”; a condition that tells them apart may be missing. Equal entries are not always repeated. The list shows a part of the results. Single values are uncertain, as repeats are few or missing.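 The assay uses human stem cell-derived hepatocyte-like cells whose DGUOK gene was disrupted by CRISPR, modeling liver mtDNA depletion syndrome. ATP signals were scored within each plate, and any drug with a score of at least 3 was called a primary hit.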

Each compound was assayed on DGUOK Δ14/Δ5 iPSC-derived hepatocyte-like cells (SV20) (assay: ATP level (CellTiter-Glo luminescence) Z score relative to plate distribution, under 2-DG glycolysis block; higher = more cellular ATP (rescue of mitochondrial ATP production)). Conditions: 5 µM; treatment time: day 15 to day 20 of differentiation (5 days); 2-deoxy-D-glucose: 20 mM for 24 h before assay.

| SMILES | ATP level |
| --- | --- |
| Oc1noc2c1CCNC2 | inactive: -0.518 |
| COc1cc([C@@H]2c3cc4c(cc3[C@H](O)[C@H]3COC(=O)[C@@H]23)OCO4)cc(OC)c1OC | inactive: 1.11 |
| CCCC(C)C1(CC)C(=O)NC(=S)NC1=O (stereo not given) | inactive: 2.28 |
| O=C1C=C2C=C[C@@H]3C[C@@]2(O1)[C@H]1CCCCN31 | inactive: 0.329 |
| CC(C)=CC1C(C(=O)OCc2cccc(Oc3ccccc3)c2)C1(C)C (stereo not given) | inactive: 2.77 |
| NC(=O)C[S@@+]([O-])C(c1ccccc1)c1ccccc1 | inactive: 0.23 |
| C[CH2][Hg][S]c1ccccc1C(=O)[O-].[Na+] | inactive: -15.1 |
| CC1(C)C(=O)C=C[C@]2(C)[C@H]3CC[C@@]4(C)[C@H](c5ccoc5)OC(=O)[C@H]5O[C@]54[C@]3(C)[C@H](O)C[C@@H]12 | inactive: -1.4 |
| CC[C@H](C)[C@H]1O[C@]2(C=C[C@@H]1C)C[C@@H]1C[C@@H](C/C=C(\C)[C@@H](O[C@H]3C[C@H](OC)[C@@H](O[C@H]4C[C@H](OC)[C@@H](O)[C@H](C)O4)[C@H](C)O3)[C@@H](C)/C=C/C=C3\CO[C@@H]4[C@H](O)C(C)=C[C@@H](C(=O)O1)[C@]34O)O2.CO[C@H]1C[C@H](O[C@H]2[C@H](C)O[C@@H](O[C@@H]3/C(C)=C/C[C@@H]4C[C@@H](C[C@]5(C=C[C@H](C)[C@@H](C(C)C)O5)O4)OC(=O)[C@@H]4C=C(C)[C@@H](O)[C@H]5OC/C(=C\C=C\[C@@H]3C)[C@]54O)C[C@@H]2OC)O[C@@H](C)[C@@H]1O [ABAMECTIN (avermectin B1a shown)] | inactive: -13.9 |
| COc1cc([C@@H]2c3cc4c(cc3[C@H](OC(C)=O)[C@H]3COC(=O)[C@H]23)OCO4)cc(OC)c1OC | inactive: -1.34 |
| Nc1ccncc1 | inactive: -0.339 |
| CN(C)Cc1c[nH]c2ccccc12 | inactive: -0.375 |
| COC(=O)[C@@H]1C[C@H](OC(C)=O)C(=O)[C@H]2[C@@]1(C)CC[C@H]1C(=O)O[C@H](c3ccoc3)C[C@]21C | inactive: 1.8 |
| CC[C@@H](C(N)=O)N1CCCC1=O | inactive: 0.599 |
| O=C(O)CCCc1ccc(N(CCCl)CCCl)cc1 | inactive: 0.619 |
| CC[C@@]1(O)C[C@H](O)c2c(cc3c(c2O)C(=O)c2c(O)ccc(O)c2C3=O)[C@H]1C(=O)OC | inactive: -0.192 |
| O=C(O[C@H]1C[C@H]2CC[C@@H](C1)[N+]21CCCC1)C(O)(c1ccccc1)c1ccccc1 | inactive: 1.47 |
| COc1ccc(C(=O)N2CCCC2=O)cc1 | active: 5.54 |
| N.N.[Cl][Pt][Cl] | inactive: -14.9 |
| CCCN1C[C@H](CSC)C[C@@H]2c3cccc4[nH]cc(c34)C[C@H]21 | inactive: -0.695 |
| CC1=C(O)C(=O)C=C2C1=CC=C1[C@@]2(C)CC[C@@]2(C)[C@@H]3C[C@](C)(C(=O)O)CC[C@]3(C)CC[C@]12C | inactive: -6.24 |
| N#C/C(=C\c1ccc(O)cc1)C(=O)O [alpha-CYANO-4-HYDROXYCINNAMIC ACID] | inactive: 0.532 |
| CC(=O)Oc1ccc(/C=C/c2cc(OC(C)=O)cc(OC(C)=O)c2)cc1 | inactive: -0.68 |
| Oc1cccc2cccnc12 | inactive: 1.32 |

| SMILES | ATP level |
| --- | --- |
| CC(C)(O)C(Cl)(Cl)Cl | inactive: -0.353 |
| COC(=O)[C@]1(C)CC[C@]2(C)CC[C@]3(C)C4=CC=C5C(=CC(=O)C(O)=C5C)[C@]4(C)CC[C@@]3(C)[C@@H]2C1 | inactive: 2.01 |
| Cc1ncc(CNC(=O)N(CCCl)N=O)c(N)n1 | inactive: 2.69 |
| CN1CCCCC1c1ccc(-c2cccnc2)nc1 (stereo not given) | inactive: -2.43 |
| CCCCCCCCCc1ccc(O)cc1 | inactive: -1.48 |
| COc1ccc2[nH]cc(CCN)c2c1 | inactive: 0.81 |
| CNc1ccc(C(=O)CC(O)CCC(C)C2OC(=O)CC(O)CC(=O)CC(O)CC(O)CC(O)CC(O)CC3(O)CC(O)C(C(=O)OC)C(CC(O[C@@H]4O[C@H](C)[C@@H](O)[C@H](N)[C@@H]4O)/C=C/C=C/C=C/C=C/C=C/C=C/C=C/C2C)O3)cc1.COC(=O)C1C(O)CC2(O)CC(O)CC(O)CC(O)CC(O)CC(=O)CC(O)CC(=O)OC(C(C)CCC(O)CC(=O)c3ccc(N)cc3)C(C)/C=C/C=C/C=C/C=C/C=C/C=C/C=C/C(O[C@@H]3O[C@H](C)[C@@H](O)[C@H](N)[C@@H]3O)CC1O2 (stereo not given in full) | inactive: -0.567 |
| CN(C)[C@@H]1C(=O)C(C(N)=O)=C(O)[C@@]2(O)C(=O)C3=C(O)c4c(O)ccc(Cl)c4[C@@](C)(O)[C@H]3C[C@@H]12 | inactive: -2.84 |
| CC[C@@]1(O)C(=O)OCc2c1cc1n(c2=O)Cc2cc3ccccc3nc2-1 | inactive: -7.85 |
| N#Cc1nn(-c2c(Cl)cc(C(F)(F)F)cc2Cl)c(N)c1[S+]([O-])C(F)(F)F (stereo not given) | inactive: 0.0825 |
| O=C1C[C@@H]2OCC=C3CN4CC[C@]56c7ccccc7N1[C@H]5[C@H]2[C@H]3C[C@H]46 | inactive: 0.0652 |
| CC(C)=CCC[C@]1(C)C=Cc2c(O)c3c(c(CC=C(C)C)c2O1)O[C@]12C(=C[C@@H]4C[C@H]1C(C)(C)O[C@@]2(C/C=C(/C)C(=O)O)C4=O)C3=O | inactive: -10.2 |
| NCCc1cc(O)c(O)cc1O | inactive: 1.76 |
| C=C(C)c1cc2cc(C(C)=O)c(O)cc2o1 | inactive: -5.65 |
| c1ccc2nc(N3CCNCC3)ccc2c1 | inactive: 2.24 |
| C[N+](C)(C)CCCCCCCCCC[N+](C)(C)C | inactive: -11.6 |
| C[N+]1(C)[C@@H]2CC[C@H]1C[C@@H](OC(=O)C(CO)c1ccccc1)C2 (stereo not given in full) | inactive: 0.656 |
| CN1C[C@H](C(=O)N[C@]2(C)O[C@@]3(O)[C@@H]4CCCN4C(=O)[C@H](Cc4ccccc4)N3C2=O)C[C@@H]2c3cccc4[nH]cc(c34)C[C@H]21 | inactive: -1.49 |
| CC(=O)OC1CN2CCC1CC2 (stereo not given) | inactive: 0.601 |
| CC(CCc1ccccc1)NC(C)C(O)c1ccc(O)cc1 (stereo not given) | inactive: -1.11 |
| COc1cccc(C2(O)CCCCC2CN(C)C)c1 (stereo not given) | inactive: 0.885 |
| CC(C)N(CCC(C(N)=O)(c1ccccc1)c1ccccn1)C(C)C (stereo not given) | inactive: 1.44 |
| CC[C@@]1(O)C[C@H](O[C@H]2C[C@H](N(C)C)[C@H](O)[C@H](C)O2)c2c(cc3c(c2O)C(=O)c2c(O)cccc2C3=O)[C@H]1C(=O)OC | inactive: -11.9 |
| N=C(N)NN | inactive: 1.45 and inactive: 1.5 |

By substructure, the entries above containing a cyano group

| SMILES | ATP level |
| --- | --- |
| N#C/C(=C\c1ccc(O)cc1)C(=O)O [alpha-CYANO-4-HYDROXYCINNAMIC ACID] | inactive: 0.532 |
| N#Cc1nn(-c2c(Cl)cc(C(F)(F)F)cc2Cl)c(N)c1[S+]([O-])C(F)(F)F (stereo not given) | inactive: 0.0825 |

Continuation:

| SMILES | ATP level |
| --- | --- |
| C[C@H](N)[C@H](O)c1ccc(O)c(O)c1 | inactive: 0.465 |
| O=[N+]([O-])O[C@@H]1CO[C@H]2[C@@H]1OC[C@@H]2O | inactive: -8.62 |
| N[C@@H](Cc1ccc(N(CCCl)CCCl)cc1)C(=O)O | inactive: 1.82 |
| NC(=O)c1ccc(N)nc1 | active: 3.15 |
| CC1=CC(=O)c2c(O)cccc2C1=O | inactive: -18.3 |
| O=C1CN=C(c2ccccc2Cl)c2cc([N+](=O)[O-])ccc2N1 | inactive: -1.1 |
| C[C@H]1O[C@H](O[C@H]2[C@H](O)[C@@H](O)[C@@H](O)[C@H](O)[C@@H]2O)[C@@H](N)C[C@@H]1NC(=N)C(=O)O | inactive: -0.815 |
| Nc1nc(N)nc(NC2CC2)n1 | inactive: 0.542 |
| Cc1ccc(-c2nc3ccc(C)cn3c2CC(=O)N(C)C)cc1 | inactive: -1.25 |
| CN1[C@@H]2CC[C@H]1C[C@@H](OC(=O)[C@H](CO)c1ccccc1)C2 | inactive: -0.237 |
| CC(=O)O[C@H]1C[C@@H](OC(C)=O)C(C)(C)C2C[C@@H](OC(C)=O)[C@]3(C)C(CC[C@@]4(C)[C@H](c5ccoc5)C(=O)[C@H]5O[C@]543)[C@]21C (stereo not given in full) | inactive: 1.59 |
| C=C(C)[C@H]1CN[C@H](C(=O)O)[C@H]1CC(=O)O | inactive: -2.3 |
| C[C@@H]1CC[C@@]2(OC1)O[C@H]1[C@@H](O)[C@H]3[C@@H]4CC[C@H]5C[C@@H](O[C@@H]6O[C@H](CO)[C@H](O[C@@H]7O[C@H](CO)[C@@H](O)[C@H](O[C@@H]8OC[C@@H](O)[C@H](O)[C@H]8O)[C@H]7O[C@@H]7O[C@H](CO)[C@H](O)[C@H](O[C@@H]8O[C@H](CO)[C@@H](O)[C@H](O)[C@H]8O)[C@H]7O)[C@H](O)[C@H]6O)[C@H](O)C[C@]5(C)[C@H]4CC[C@]3(C)[C@H]1[C@@H]2C | inactive: 0.81 |
| Cc1cc(O)ccc1Cl | inactive: -0.148 |
| CC(C)[C@@H]1NC(=O)[C@H](C)OC(=O)[C@@H](C(C)C)NC(=O)[C@@H](C(C)C)OC(=O)[C@H](C(C)C)NC(=O)[C@H](C)OC(=O)[C@@H](C(C)C)NC(=O)[C@@H](C(C)C)OC(=O)[C@H](C(C)C)NC(=O)[C@H](C)OC(=O)[C@@H](C(C)C)NC(=O)[C@@H](C(C)C)OC1=O | inactive: -15.7 |
| C=C[C@H]1CN2CC[C@H]1C[C@H]2[C@H](OC(=O)OCC)c1ccnc2ccc(OC)cc12 | inactive: 1.59 |
| CC(=O)Oc1c2c(c(CC=C(C)C)c3c1C(=O)C1=C[C@@H]4CC5C(C)(C)OC(C/C=C(\C)C(=O)O)(C4=O)[C@@]15O3)OC(C)(CCC=C(C)C)C=C2 (stereo not given in full) | inactive: -9.72 |
| COc1ccc(CN2CCNCC2)c(OC)c1OC | inactive: 0.307 |
| Nc1ncn[nH]1 | inactive: 1.01 |
| CC(C)=CCCC1(C)C=Cc2c(O)c3c(c(CC=C(C)C)c2O1)OC12C(CC4CC1C(C)(C)OC2(C/C=C(/C)C(=O)O)C4O)C3=O (stereo not given) | inactive: -0.0584 |
| CC[C@H]1CN2CC[C@H]1C[C@@H]2[C@@H](O)c1ccnc2ccc(OC)cc12 | inactive: -0.471 |
| CC(Cl)(Cl)C(=O)O | inactive: 0.429 |

Quoted from the listing.
For ATP level, Nc1ncn[nH]1 has inactive: 1.01
For ATP level, CCCC(C)C1(CC)C(=O)NC(=S)NC1=O (stereo not given) has inactive: 2.28
